The target of assay [1] is T1, 3xF-tagged CLSY3 (Arabidopsis) (UniProt F4I8S3).
T1 sequence: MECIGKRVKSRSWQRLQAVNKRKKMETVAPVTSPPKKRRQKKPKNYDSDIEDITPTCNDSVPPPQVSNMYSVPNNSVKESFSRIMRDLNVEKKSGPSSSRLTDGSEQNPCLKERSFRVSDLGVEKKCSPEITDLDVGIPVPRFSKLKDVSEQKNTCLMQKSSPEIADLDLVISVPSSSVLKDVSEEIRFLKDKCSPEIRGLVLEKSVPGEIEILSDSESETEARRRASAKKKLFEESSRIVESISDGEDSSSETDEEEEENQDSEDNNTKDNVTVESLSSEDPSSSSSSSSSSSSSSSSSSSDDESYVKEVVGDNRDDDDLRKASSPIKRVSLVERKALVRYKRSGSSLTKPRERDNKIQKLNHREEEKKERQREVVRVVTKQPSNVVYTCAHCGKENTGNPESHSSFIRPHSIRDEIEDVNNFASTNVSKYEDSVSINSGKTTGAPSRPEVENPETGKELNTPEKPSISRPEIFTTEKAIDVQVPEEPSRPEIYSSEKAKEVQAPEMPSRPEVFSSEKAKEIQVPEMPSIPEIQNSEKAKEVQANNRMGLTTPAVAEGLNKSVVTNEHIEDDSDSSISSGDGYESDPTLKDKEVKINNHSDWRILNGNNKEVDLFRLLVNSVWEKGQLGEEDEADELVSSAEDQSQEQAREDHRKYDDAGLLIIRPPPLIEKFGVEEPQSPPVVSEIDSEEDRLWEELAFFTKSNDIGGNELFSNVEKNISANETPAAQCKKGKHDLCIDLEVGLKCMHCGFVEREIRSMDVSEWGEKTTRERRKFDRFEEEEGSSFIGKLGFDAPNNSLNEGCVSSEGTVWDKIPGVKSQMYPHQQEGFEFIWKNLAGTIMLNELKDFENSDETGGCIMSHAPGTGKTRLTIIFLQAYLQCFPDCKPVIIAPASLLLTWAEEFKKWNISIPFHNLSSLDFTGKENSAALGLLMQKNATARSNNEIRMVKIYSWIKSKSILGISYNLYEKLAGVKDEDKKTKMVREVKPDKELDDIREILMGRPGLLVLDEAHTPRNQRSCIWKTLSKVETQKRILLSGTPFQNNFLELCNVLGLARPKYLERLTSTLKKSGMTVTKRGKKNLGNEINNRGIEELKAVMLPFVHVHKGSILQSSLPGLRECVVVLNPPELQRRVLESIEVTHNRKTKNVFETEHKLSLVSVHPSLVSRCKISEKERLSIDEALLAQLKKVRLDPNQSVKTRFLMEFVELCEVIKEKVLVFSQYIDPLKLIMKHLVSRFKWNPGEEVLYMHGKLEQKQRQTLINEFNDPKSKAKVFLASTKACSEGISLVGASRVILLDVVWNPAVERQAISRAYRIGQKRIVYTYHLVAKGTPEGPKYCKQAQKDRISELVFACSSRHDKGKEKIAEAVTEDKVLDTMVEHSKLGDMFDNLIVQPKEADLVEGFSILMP
As to the kind of experiment: affinity purification with mass spectrometry; anti-Flag M2 magnetic beads on 10 g flowers of 3xF-tagged CLSY lines in their clsy mutant backgrounds; elution with 3x-FLAG peptide; compared to non-transgenic wild-type controls.

Protein sequences, listed by entry. Tags and fused reporters are not part of them.
UniProt Q9LQ02: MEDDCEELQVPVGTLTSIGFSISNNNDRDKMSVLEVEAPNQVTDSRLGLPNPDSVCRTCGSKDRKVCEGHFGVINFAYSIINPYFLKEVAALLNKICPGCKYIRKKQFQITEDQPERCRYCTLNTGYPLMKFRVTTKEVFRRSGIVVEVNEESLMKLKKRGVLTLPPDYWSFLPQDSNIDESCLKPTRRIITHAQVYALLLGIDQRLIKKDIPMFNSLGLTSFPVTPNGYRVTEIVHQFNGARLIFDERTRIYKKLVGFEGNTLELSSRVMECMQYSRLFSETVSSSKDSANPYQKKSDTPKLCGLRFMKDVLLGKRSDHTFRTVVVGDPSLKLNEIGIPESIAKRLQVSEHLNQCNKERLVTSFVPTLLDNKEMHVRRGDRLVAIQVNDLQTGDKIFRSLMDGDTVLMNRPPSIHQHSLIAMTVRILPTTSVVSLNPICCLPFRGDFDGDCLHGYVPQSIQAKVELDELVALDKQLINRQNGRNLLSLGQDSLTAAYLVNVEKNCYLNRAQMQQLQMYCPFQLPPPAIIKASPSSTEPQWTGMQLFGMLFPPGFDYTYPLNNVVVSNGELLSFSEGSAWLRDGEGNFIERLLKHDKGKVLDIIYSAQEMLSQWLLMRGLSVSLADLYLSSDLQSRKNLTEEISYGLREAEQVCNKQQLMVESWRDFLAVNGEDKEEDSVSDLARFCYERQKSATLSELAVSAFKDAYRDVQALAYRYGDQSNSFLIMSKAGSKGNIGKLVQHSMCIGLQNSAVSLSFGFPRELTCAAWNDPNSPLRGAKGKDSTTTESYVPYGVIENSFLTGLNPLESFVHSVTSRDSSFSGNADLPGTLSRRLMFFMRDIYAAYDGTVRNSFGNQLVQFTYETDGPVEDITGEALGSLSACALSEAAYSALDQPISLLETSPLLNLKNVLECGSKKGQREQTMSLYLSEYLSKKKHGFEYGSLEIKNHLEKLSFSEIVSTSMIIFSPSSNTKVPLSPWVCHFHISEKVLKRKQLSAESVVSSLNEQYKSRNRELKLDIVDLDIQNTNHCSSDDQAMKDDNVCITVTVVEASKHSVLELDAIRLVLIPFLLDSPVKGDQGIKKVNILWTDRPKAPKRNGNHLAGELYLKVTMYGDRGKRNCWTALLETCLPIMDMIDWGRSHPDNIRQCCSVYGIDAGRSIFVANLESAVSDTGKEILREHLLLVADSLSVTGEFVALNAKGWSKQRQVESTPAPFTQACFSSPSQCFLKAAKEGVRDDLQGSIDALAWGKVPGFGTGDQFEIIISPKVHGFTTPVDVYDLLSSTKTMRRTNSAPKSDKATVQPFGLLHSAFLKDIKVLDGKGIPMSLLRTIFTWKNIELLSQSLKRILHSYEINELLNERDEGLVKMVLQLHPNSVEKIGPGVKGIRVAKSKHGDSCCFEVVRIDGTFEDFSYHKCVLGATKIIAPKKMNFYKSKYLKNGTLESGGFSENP

The target in assay [2] is T2, 3xF-tagged CLSY4 (Arabidopsis) (UniProt Q9LK10).
T2 sequence: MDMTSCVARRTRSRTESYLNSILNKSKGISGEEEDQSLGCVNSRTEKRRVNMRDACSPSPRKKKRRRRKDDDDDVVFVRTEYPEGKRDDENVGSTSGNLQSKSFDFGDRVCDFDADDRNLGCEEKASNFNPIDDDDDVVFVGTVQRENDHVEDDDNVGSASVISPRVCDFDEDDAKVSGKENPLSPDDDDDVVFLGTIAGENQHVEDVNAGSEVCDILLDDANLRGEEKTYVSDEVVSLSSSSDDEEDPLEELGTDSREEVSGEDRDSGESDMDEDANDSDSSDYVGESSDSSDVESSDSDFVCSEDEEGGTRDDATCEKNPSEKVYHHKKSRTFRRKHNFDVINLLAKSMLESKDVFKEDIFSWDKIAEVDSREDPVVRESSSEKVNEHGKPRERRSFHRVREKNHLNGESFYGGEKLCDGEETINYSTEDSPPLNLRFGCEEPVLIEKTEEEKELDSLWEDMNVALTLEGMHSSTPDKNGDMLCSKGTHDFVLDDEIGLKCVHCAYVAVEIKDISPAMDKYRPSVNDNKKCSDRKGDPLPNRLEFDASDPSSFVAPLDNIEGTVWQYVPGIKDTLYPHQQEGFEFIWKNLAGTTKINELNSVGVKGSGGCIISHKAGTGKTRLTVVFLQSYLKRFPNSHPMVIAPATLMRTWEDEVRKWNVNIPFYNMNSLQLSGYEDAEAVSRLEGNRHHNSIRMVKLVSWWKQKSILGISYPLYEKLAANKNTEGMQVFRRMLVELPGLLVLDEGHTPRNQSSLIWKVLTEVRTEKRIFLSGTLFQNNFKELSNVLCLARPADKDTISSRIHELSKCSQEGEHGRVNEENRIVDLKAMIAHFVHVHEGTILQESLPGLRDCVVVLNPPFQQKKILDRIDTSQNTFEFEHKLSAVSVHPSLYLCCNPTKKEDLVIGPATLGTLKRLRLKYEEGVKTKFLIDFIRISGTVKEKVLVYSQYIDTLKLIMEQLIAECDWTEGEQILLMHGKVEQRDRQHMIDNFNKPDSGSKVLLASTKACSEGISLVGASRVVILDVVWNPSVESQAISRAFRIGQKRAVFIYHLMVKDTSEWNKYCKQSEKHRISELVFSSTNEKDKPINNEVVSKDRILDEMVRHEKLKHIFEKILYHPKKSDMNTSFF
The description is as above.

For assay [3], the target named is NRPD1-3xFWT (Arabidopsis) (UniProt Q9LQ02). As to the kind of experiment: affinity purification with mass spectrometry; anti-FLAG magnetic beads (uMACS DYKDDDK kit) on flower extracts of nrpd1-3 T2 lines with NRPD1-3xF WT, AAA-YPMF or CYC-AAAA; three lines, two replicates each; LC-MS/MS spectral counts.

Results are given in words; binding and its absence hold for the method and conditions named. In cells and extracts the contact can be indirect. These calls come from enrichment with a bait or labelling near it, and not all partners need be listed. For part of these data: No binding means not detected with the bait. For part of these data: Sequences can lack the tags named with a protein.

B1: CLASSY 1 (CLSY1) (protein, UniProt Q9M297 1-1256)
chain: MKRKHYFEFNHPFNPCPFEVFCWGTWKAVEYLRIENGTMTMRLLENGQVLDDIKPFQRLRIRSRKATLIDCTSFLRPGIDVCVLYQRDEETPEPVWVDARVLSIERKPHESECLCTFHVSVYIDQGCIGLEKHRMNKVPVLVGLNEIAILQKFCKEQSLDRYYRWRYSEDCSSLVKTRLNLGKFLPDLTWLLVTSVLKNIVFQIRTVHEKMVYQIVTDEDCEGSSSSLSAMNITVEDGVVMSKVVLFNPAEDTCQDSDVKEEIEEEVMELRRSKRRSGRPERYGDSEIQPDSKDGWVRMMPYRYNIWNVSSDDDDEEEDCEDDKDTDDDLYLPLSHLLRKKGSKKGFSKDKQREIVLVDKTERKKRKKTEGFSRSCELSVIPFTPVFEPIPLEQFGLNANSLCGGVSGNLMDEIDKYRSKAAKYGKKKKKKIEMEEMESDLGWNGPIGNVVHKRNGPHSRIRSVSRETGVSEEPQIYKKRTLSAGAYNKLIDSYMSRIDSTIAAKDKATNVVEQWQGLKNPASFSIEAEERLSEEEEDDGETSENEILWREMELCLASSYILDDHEVRVDNEAFHKATCDCEHDYELNEEIGMCCRLCGHVGTEIKHVSAPFARHKKWTTETKQINEDDINTTIVNQDGVESHTFTIPVASSDMPSAEESDNVWSLIPQLKRKLHLHQKKAFEFLWKNLAGSVVPAMMDPSSDKIGGCVVSHTPGAGKTFLIIAFLASYLKIFPGKRPLVLAPKTTLYTWYKEFIKWEIPVPVHLLHGRRTYCMSKEKTIQFEGIPKPSQDVMHVLDCLDKIQKWHAQPSVLVMGYTSFLTLMREDSKFAHRKYMAKVLRESPGLLVLDEGHNPRSTKSRLRKALMKVDTDLRILLSGTLFQNNFCEYFNTLCLARPKFVHEVLVELDKKFQTNQAEQKAPHLLENRARKFFLDIIAKKIDTKVGDERLQGLNMLRNMTSGFIDNYEGSGSGSGDVLPGLQIYTLLMNSTDVQHKSLTKLQNIMSTYHGYPLELELLITLAAIHPWLVKTTTCCAKFFNPQELLEIEKLKHDAKKGSKVMFVLNLVFRVVKREKILIFCHNIAPIRLFLELFENVFRWKRGRELLTLTGDLELFERGRVIDKFEEPGGQSRVLLASITACAEGISLTAASRVIMLDSEWNPSKTKQAIARAFRPGQQKVVYVYQLLSRGTLEEDKYRRTTWKEWVSSMIFSEEFVEDPSQWQAEKIEDDVLREIVEEDKVKSFHMIMKNEKASTGG
On to B1, for which the binding entry in assay [1] was “no binding”; in assay [2], “no binding”; in assay [3] it was “binds”.
